Reference: the supplement of paper PMC9233669
Variants at the floor of the assay are shown more often than the library holds them.

Key:
biotinyl-Trp-oxazolone = experiment: self-aminoacylation, catalytic enhancement (BWO) (fold over background); higher = more active; k-Seq, kA / k0A0; sequences stand for … in GGGAAUGGAUCCACAUCUACGAAUUC…UUCACUGCAGACUUGACGAAGCUG
Procedure, shortened: (§1)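 Catalytic enhancement equals the median kA over the uncatalyzed rate, the latter read from the low-activity peak of a bimodal Gaussian fit. Values of kA came from fitting each sequence's fraction reacted to a pseudo-first-order model, with 1000 bootstraps. Reacted RNA was captured with streptavidin and quantified by triplicate qPCR and Illumina sequencing after 90 minutes at room temperature with 2–1250 μM biotinyl-aminoacyl-oxazolone and 0.43 μM mutagenized RNA pools bearing a 21-nt variable region.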

biotinyl-Leu-oxazolone = experiment: self-aminoacylation, catalytic enhancement (BLO) (fold over background); higher = more active; k-Seq, kA / k0A0; sequences stand for … in GGGAAUGGAUCCACAUCUACGAAUUC…UUCACUGCAGACUUGACGAAGCUG
Procedure, shortened: as §1

biotinyl-Val-oxazolone = experiment: self-aminoacylation, catalytic enhancement (BVO) (fold over background); higher = more active; k-Seq, kA / k0A0; sequences stand for … in GGGAAUGGAUCCACAUCUACGAAUUC…UUCACUGCAGACUUGACGAAGCUG
Procedure, shortened: as §1

biotinyl-Ile-oxazolone = experiment: self-aminoacylation, catalytic enhancement (BIO) (fold over background); higher = more active; k-Seq, kA / k0A0; sequences stand for … in GGGAAUGGAUCCACAUCUACGAAUUC…UUCACUGCAGACUUGACGAAGCUG
Procedure, shortened: as §1

biotinyl-Met-oxazolone = experiment: self-aminoacylation, catalytic enhancement (BMO) (fold over background); higher = more active; k-Seq, kA / k0A0; sequences stand for … in GGGAAUGGAUCCACAUCUACGAAUUC…UUCACUGCAGACUUGACGAAGCUG
Procedure, shortened: as §1

biotinyl-Phe-oxazolone = experiment: self-aminoacylation, catalytic enhancement (BFO) (fold over background); higher = more active; k-Seq, kA / k0A0; sequences stand for … in GGGAAUGGAUCCACAUCUACGAAUUC…UUCACUGCAGACUUGACGAAGCUG
Procedure, shortened: as §1

Sequence | self-aminoacylation (biotinyl-Trp-oxazolone) | self-aminoacylation (biotinyl-Leu-oxazolone) | self-aminoacylation (biotinyl-Val-oxazolone) | self-aminoacylation (biotinyl-Ile-oxazolone) | self-aminoacylation (biotinyl-Met-oxazolone) | self-aminoacylation (biotinyl-Phe-oxazolone)
AUUCACCUAGGUCUUAGGGUG [Fam2.2 aminoacylation ribozyme variant] | 4.24 | 7.06 | 2.85 | 3.08 | 5.1 | 32.2
AUUCACCUAGGUGAUCGGAUG [Fam2.2 aminoacylation ribozyme variant] | 1.16 | 0.943 | 0.924 | 0.945 | 0.967 | 1.82
AUUCACCUAGGUUAUCCGGUG [Fam2.2 aminoacylation ribozyme variant] | 5.66 | 8.66 | 3.77 | 3.8 | 7.05 | 42.3
AUUCACCUAUGUCAUCGUGUG [Fam2.2 aminoacylation ribozyme variant] | 0.418 | 0.795 | 0.877 | 0.831 | 0.86 | 0.532
AUUCACCUGGGUCAUCGGAUG [Fam2.2 aminoacylation ribozyme variant] | 0.666 | 0.968 | 1.19 | 0.984 | 0.96 | 0.802
AUUCACUUAGGUCAUCGGGUA [Fam2.2 aminoacylation ribozyme variant] | 1.96 | 1.89 | 2.15 | 2.29 | 2.38 | 1.49
AUUCACUUAGGUCAUCGGUUG [Fam2.2 aminoacylation ribozyme variant] | 0.519 | 0.901 | 0.831 | 0.87 | 0.764 | 0.69
AUUCAUCUAGGUCAGCGGGUG [Fam2.2 aminoacylation ribozyme variant] | 4.36 | 5.56 | 3.23 | 3.25 | 4.17 | 25.3
AUUCCCCGAGGUCAUCGGGUG [Fam2.2 aminoacylation ribozyme variant] | 20.2 | 29.9 | 14 | 12.5 | 22.7 | 188
AUUCCCCUAGGUAAUCGGGUG [Fam2.2 aminoacylation ribozyme variant] | 11.6 | 16.3 | 6.58 | 7.5 | 10.7 | 90.8
AUUCCCCUAGGUCAUCAGGUG [Fam2.2 aminoacylation ribozyme variant] | 7.46 | 8.19 | 6.96 | 6.44 | 8.46 | 29.4
AUUCCCCUAGGUCAUUGGGUG [Fam2.2 aminoacylation ribozyme variant] | 11.8 | 15.6 | 7.95 | 7.23 | 10.3 | 92.5
AUUCGCCUAGGUCAUCGCGUG [Fam2.2 aminoacylation ribozyme variant] | 17.6 | 23.4 | 10.9 | 10 | 19.2 | 126
AUUCGCGUAGGUCAUCGGGUG [Fam2.2 aminoacylation ribozyme variant] | 7.24 | 8.56 | 4.87 | 5.25 | 8.32 | 57.5
AUUCUGCUAGGUCAUCGGGUG [Fam2.2 aminoacylation ribozyme variant] | 9.84 | 12 | 6.13 | 5.96 | 9.46 | 72.1
AUUGCCCUGGUCAUCGAGUGG [Fam2.1 aminoacylation ribozyme variant] | 29.8 | 29.4 | 10.9 | 9.44 | 30.9 | 197
AUUGCCCUGGUCAUCGAUUGA [Fam2.1 aminoacylation ribozyme variant] | 0.917 | 0.982 | 1.23 | 0.93 | 0.981 | 1.22
AUUUACCUAGGUCAGCGGGUG [Fam2.2 aminoacylation ribozyme variant] | 3.98 | 4.23 | 3.16 | 2.49 | 4.01 | 24.5
AUUUACCUAGGUCAUCAGGUG [Fam2.2 aminoacylation ribozyme variant] | 1.23 | 1.47 | 1.31 | 1.29 | 1.58 | 0.951
AUUUCCCUCGUCAUCGAGUGA [Fam2.1 aminoacylation ribozyme variant] | 4.57 | 3.93 | 2.6 | 2.5 | 3.39 | 21.2
CAACACUUCAAGCGAUCGGUC [Fam1B.1 aminoacylation ribozyme variant] | 1.81 | 1.55 | 1.25 | 1.27 | 1.29 | 1.94
CAACACUUCGAGCAAUCGGUC [Fam1B.1 aminoacylation ribozyme variant] | 0.722 | 1.28 | 1.07 | 1.09 | 0.965 | 1.05
